Measurements as given in doi:10.1101/2025.05.07.652780.
Results are given in words; binding and its absence hold for the method and conditions named. In cells and extracts the contact can be indirect. Some results given as binding are weak or reduced against the parent protein; the word gives no strength.

Sequences of proteins named here, by UniProt entry; tags and fusion partners are left off. A change or cut given only in a name is not applied to a line headed by its entry. A line that says so, or that is headed by a name, gives the form on record, which may keep a tag or linker.
HBH-ΔF508-CFTR-3HA (P13569, form named): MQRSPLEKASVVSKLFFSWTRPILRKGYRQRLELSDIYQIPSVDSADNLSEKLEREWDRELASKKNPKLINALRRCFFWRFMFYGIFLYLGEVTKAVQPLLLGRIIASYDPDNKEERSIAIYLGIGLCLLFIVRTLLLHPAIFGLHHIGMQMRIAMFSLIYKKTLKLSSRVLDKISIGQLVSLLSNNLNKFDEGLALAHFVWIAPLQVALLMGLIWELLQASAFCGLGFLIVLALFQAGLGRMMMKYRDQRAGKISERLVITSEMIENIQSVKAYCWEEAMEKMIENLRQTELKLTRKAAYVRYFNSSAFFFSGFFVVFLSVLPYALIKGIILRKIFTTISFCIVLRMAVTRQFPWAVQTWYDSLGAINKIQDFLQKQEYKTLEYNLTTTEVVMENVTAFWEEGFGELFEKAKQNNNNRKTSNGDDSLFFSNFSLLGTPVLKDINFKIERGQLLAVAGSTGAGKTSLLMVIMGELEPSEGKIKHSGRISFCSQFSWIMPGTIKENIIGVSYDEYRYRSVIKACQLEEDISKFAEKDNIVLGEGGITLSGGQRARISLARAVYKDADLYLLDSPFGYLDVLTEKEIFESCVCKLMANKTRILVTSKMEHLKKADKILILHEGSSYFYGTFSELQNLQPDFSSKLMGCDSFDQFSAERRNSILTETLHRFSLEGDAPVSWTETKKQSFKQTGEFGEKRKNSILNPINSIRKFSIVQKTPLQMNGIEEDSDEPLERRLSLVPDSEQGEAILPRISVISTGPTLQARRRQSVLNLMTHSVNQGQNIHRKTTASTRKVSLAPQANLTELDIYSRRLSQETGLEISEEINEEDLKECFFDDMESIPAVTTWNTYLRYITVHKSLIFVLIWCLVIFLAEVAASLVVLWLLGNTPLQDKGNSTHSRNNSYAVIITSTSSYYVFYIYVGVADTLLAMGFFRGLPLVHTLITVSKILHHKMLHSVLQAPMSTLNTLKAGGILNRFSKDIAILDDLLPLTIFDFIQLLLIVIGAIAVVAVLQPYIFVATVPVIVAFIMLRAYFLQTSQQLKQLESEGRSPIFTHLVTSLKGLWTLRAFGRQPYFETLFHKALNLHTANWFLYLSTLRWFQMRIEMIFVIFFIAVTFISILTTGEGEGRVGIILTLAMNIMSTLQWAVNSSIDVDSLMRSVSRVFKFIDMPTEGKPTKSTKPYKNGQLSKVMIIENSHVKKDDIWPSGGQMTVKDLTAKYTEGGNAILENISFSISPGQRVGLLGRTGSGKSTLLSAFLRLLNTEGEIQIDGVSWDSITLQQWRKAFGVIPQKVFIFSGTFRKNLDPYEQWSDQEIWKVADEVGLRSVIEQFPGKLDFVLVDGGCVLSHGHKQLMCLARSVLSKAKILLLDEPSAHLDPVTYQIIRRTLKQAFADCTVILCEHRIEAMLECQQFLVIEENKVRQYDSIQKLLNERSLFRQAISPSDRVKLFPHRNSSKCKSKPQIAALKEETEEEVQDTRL
UniProt Q86TM6: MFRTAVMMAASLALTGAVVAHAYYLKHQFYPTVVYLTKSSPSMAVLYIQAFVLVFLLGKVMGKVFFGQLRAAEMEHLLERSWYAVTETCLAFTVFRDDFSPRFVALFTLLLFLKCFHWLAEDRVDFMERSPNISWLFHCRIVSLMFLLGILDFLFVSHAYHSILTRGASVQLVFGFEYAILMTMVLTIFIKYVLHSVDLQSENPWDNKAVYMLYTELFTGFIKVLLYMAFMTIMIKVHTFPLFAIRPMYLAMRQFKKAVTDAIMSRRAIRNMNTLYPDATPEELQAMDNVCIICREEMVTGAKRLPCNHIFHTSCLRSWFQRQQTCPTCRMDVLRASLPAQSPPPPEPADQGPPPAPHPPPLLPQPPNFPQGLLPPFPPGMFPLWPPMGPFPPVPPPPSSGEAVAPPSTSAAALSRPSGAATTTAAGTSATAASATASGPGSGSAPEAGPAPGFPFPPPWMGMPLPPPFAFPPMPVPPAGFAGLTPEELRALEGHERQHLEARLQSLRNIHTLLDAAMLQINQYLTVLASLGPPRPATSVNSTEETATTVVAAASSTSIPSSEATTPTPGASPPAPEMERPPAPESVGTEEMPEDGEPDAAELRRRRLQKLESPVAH
UniProt Q9UKV5: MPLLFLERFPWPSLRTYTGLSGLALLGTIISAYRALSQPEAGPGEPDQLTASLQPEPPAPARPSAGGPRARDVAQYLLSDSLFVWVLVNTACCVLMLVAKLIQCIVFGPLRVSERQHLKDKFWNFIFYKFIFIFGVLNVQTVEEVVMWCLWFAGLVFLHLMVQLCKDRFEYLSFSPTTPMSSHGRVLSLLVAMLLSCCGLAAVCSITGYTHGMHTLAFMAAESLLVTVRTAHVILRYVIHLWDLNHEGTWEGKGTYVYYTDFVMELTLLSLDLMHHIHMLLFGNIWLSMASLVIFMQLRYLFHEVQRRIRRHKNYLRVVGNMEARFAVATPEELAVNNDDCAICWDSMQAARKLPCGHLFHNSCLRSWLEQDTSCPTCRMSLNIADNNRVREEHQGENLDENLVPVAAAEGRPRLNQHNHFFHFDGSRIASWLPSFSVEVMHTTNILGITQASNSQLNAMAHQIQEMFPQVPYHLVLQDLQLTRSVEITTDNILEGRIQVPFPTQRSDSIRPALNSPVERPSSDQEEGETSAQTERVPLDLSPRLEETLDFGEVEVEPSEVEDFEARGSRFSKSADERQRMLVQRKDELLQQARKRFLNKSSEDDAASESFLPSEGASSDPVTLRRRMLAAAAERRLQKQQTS

Target: HBH-ΔF508-CFTR-3HA (UniProt P13569)
Test: pull-down

binding	Substance
binds	Synoviolin 1 (SYVN1), endogenous (from UniProt Q86TM6 1-617) (enzyme)
binds	AMFR (Gp78), endogenous (from UniProt Q9UKV5 1-643) (enzyme)
